No constants are given. Whether binding was seen depends on the method and setting. Binding seen in cells or lysates may run through a third protein. Some results given as binding are weak or reduced against the parent protein; the word gives no strength. For part of these data: Sequences can lack the tags named with a protein.
T1: ANXA1-mCherry (UniProt P04083)
T1 sequence: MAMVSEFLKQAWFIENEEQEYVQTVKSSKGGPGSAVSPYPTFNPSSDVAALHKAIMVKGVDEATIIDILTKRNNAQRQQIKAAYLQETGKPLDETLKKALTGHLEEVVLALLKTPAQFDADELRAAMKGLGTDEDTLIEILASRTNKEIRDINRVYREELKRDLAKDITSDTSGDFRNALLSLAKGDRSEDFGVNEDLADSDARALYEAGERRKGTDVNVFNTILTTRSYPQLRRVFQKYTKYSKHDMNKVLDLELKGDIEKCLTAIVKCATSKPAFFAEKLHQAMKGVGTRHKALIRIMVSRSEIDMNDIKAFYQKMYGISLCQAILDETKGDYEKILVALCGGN

T2: GFP-LGN (UniProt P81274)
T2 sequence: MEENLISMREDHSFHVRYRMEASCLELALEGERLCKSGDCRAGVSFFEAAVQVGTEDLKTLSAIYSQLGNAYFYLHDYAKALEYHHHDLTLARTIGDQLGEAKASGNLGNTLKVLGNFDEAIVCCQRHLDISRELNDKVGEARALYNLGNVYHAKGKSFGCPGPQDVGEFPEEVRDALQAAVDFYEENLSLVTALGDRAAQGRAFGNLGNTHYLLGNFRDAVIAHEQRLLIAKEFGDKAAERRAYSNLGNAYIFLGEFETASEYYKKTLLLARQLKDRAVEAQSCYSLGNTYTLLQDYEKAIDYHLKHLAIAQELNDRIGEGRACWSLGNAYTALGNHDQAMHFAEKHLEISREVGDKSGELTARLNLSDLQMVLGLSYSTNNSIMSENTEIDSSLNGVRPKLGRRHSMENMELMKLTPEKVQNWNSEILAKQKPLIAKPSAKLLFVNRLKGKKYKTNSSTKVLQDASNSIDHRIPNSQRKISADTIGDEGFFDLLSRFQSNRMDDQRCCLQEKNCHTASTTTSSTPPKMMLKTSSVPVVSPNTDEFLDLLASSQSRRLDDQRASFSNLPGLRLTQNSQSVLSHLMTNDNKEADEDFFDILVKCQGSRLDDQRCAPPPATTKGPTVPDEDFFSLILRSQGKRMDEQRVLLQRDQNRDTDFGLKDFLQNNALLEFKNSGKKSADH


Assays:
ANXA1-mCherry = biological target: T1, ANXA1-mCherry; assay: co-IP
GFP-LGN [1] = biological target: T2, GFP-LGN; assay: co-IP
GFP-LGN [2] = biological target: T2, GFP-LGN; assay: proximity ligation

binding (ANXA1-mCherry) | binding (GFP-LGN [1]) | binding (GFP-LGN [2]) | Binder
binds | – | – | LGN (endogenous) (protein, UniProt P81274 1-684) MEENLISMREDHSFHVRYRMEASCLELALEGERLCKSGDCRAGVSFFEAAVQVGTEDLKTLSAIYSQLGNAYFYLHDYAKALEYHHHDLTLARTIGDQLGEAKASGNLGNTLKVLGNFDEAIVCCQRHLDISRELNDKVGEARALYNLGNVYHAKGKSFGCPGPQDVGEFPEEVRDALQAAVDFYEENLSLVTALGDRAAQGRAFGNLGNTHYLLGNFRDAVIAHEQRLLIAKEFGDKAAERRAYSNLGNAYIFLGEFETASEYYKKTLLLARQLKDRAVEAQSCYSLGNTYTLLQDYEKAIDYHLKHLAIAQELNDRIGEGRACWSLGNAYTALGNHDQAMHFAEKHLEISREVGDKSGELTARLNLSDLQMVLGLSYSTNNSIMSENTEIDSSLNGVRPKLGRRHSMENMELMKLTPEKVQNWNSEILAKQKPLIAKPSAKLLFVNRLKGKKYKTNSSTKVLQDASNSIDHRIPNSQRKISADTIGDEGFFDLLSRFQSNRMDDQRCCLQEKNCHTASTTTSSTPPKMMLKTSSVPVVSPNTDEFLDLLASSQSRRLDDQRASFSNLPGLRLTQNSQSVLSHLMTNDNKEADEDFFDILVKCQGSRLDDQRCAPPPATTKGPTVPDEDFFSLILRSQGKRMDEQRVLLQRDQNRDTDFGLKDFLQNNALLEFKNSGKKSADH
– | binds | binds | Annexin A1 (ANXA1) (protein, UniProt P04083 1-346) MAMVSEFLKQAWFIENEEQEYVQTVKSSKGGPGSAVSPYPTFNPSSDVAALHKAIMVKGVDEATIIDILTKRNNAQRQQIKAAYLQETGKPLDETLKKALTGHLEEVVLALLKTPAQFDADELRAAMKGLGTDEDTLIEILASRTNKEIRDINRVYREELKRDLAKDITSDTSGDFRNALLSLAKGDRSEDFGVNEDLADSDARALYEAGERRKGTDVNVFNTILTTRSYPQLRRVFQKYTKYSKHDMNKVLDLELKGDIEKCLTAIVKCATSKPAFFAEKLHQAMKGVGTRHKALIRIMVSRSEIDMNDIKAFYQKMYGISLCQAILDETKGDYEKILVALCGGN

Source: paper doi:10.1101/2021.07.28.454117
